Assay results as given in patent publication US6958321B2, “Isolation, characterization, cloning and use of a mushroom lectin” (The Regents of the University of Michigan, priority 2001, dated 2005).
No constants are given. Whether binding was seen depends on the method and setting.

Experiments:
[1] = target: Pigeon ovalbumin (pigeon); assay: affinity chromatography on MOA-Sepharose 4B, PBS wash then elution with 20 mM 1,3-diaminopropane in 0.15 M NaCl, A280 of 1 ml fractions
[2] = target: Pigeon ovalbumin (pigeon); assay: affinity chromatography on MOA-Sepharose 4B

binding [1]: no binding
binding [2]: no binding
B1: Intact native Marasmius oreades agglutinin (MOA) prepared by the method of Example 2 (other)
chain: MSLRRGIYHIENAGVPSAIDLKDGSSSDGTPIVGWQFTPDTINWHQLWLAEPIPNVADTFTLCNLFSGTYMDLYNGSSEAGTAVNGWQGTAFTTNPHQLWTIKKSSDGTSYKIQNYGSKTFVDLVNGDSSDGAKIAGWTGTWDEGNPHQKWYFNRMSVSSAEAQAAIARNPHIHGTYRGYILDGEYLVLPNATFTQIWKDSGLPGSKWREQIYDCDDFAIAMKAAVGKWGADSWKANGFAIFCGVMLGVNKAGDAAHAYNFTLTKDHADIVFFEPQNGGYLNDIGYDSYMAFY
modifications: blocked N-terminus (possibly N-acetyl)
notes: also called native MOA; immobilized MOA
